No constants are given. Whether binding was seen depends on the method and setting. In cells and extracts the contact can be indirect.
Molecular target: T1, SAX-3 (C. elegans) (UniProt G5EBF1)
T1 sequence: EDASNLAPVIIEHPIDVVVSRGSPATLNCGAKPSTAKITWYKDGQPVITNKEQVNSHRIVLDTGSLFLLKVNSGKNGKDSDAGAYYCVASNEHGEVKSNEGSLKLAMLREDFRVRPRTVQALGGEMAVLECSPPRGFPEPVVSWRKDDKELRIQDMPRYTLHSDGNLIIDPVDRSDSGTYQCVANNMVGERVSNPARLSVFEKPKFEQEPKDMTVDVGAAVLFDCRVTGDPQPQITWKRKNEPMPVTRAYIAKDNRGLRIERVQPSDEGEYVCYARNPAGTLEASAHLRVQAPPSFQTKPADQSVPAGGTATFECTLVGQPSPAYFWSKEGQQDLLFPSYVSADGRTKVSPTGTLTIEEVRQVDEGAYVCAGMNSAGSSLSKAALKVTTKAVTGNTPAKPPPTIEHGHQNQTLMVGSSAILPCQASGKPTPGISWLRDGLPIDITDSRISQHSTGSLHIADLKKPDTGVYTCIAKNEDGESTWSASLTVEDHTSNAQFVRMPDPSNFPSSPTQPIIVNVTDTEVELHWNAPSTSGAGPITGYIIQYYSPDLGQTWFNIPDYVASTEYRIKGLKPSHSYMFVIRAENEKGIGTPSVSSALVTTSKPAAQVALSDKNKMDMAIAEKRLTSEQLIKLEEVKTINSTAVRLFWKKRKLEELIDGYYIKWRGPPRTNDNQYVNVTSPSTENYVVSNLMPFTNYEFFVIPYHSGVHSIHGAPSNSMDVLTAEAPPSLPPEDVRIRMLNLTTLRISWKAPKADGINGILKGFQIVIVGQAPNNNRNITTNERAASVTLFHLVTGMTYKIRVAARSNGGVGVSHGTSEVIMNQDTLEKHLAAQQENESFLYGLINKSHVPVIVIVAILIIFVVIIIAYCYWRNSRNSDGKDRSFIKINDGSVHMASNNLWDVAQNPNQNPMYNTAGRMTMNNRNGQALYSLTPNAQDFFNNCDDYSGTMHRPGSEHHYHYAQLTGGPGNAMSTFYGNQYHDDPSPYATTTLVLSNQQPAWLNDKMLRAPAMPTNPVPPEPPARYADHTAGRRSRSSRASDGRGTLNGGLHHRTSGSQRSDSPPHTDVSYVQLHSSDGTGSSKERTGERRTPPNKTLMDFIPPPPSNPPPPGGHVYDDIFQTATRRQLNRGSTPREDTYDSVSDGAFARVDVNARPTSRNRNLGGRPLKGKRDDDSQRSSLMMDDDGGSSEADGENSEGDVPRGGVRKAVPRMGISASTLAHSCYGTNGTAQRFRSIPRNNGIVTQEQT
Test: co-IP; CoIP assay; no format, conditions or source of the proteins told

binding: no binding
B1: UNC-51 (protein, UniProt Q23023 1-856)
chain: MEQFDGFEYSKRDLLGHGAFAIVYRGRYVDRTDVPVAIKAIAKKNISKSKNLLTKEIKILKELSSLKHENLVGLLKCTETPTHVYLVMEFCNGGDLADYLQQKTTLNEDTIQHFVVQIAHALEAINKKGIVHRDLKPQNILLCNNSRTQNPHFTDIVIKLADFGFARFLNDGVMAATLCGSPMYMAPEVIMSMQYDAKADLWSIGTILFQCLTGKAPFVAQTPPQLKAYYEKTRELRPNIPEWCSPNLRDLLLRLLKRNAKDRISFEDFFNHPFLTSPLLPSPSKRILESARSPLLANRRIITPQSSLPVPKRAGSTKLDSPTPVRRIGESPRVQRRVITPGMPSPVPGAPMQESTDFTFLPPRQESSPVKQVQVHTNVSPSLTTCKPVPVPSQRLTYQKMEERLAAARKTAVPSSSSPTGSAVSAQHQHQHQQQQEPASSPVVQRIERPDQLPRRTTLQDPNAHDIERMTMPNPTFVVCGSSTKPSPNNANRVRRSTITSPADTQDMVAADQMLSNLDPTTTTTTIPKSATTANIQGIPRGARDRSVTSPPQPTIHENEPLDNAKYQQTDVNNSPTAPTEPFIIKNQTTCSTSSTSSSVVEEEEAMSLPFASGSHLAAGFKKTPAEVPMDHGALPPALDQEIVLGEEHKQILAKLRFVAELVDTLIHVAEQKDNPLASAMASRRQLLTTGTSTTNTSSPYRRAEQLVVYVRALHMLSSALLLAQTNVANRVLHPSVAVQQVLNQLNDKYHQCLVRSQELASLGLPGQDPAMAVISAERIMYRHAIELCQAAALDELFGNPQLCSQRYQTAYMMLHTLAEQVNCDQDKTVLTRYKVAVEKRLRILERQGFVAAVNT

From publication PMC3680500
